This note sets out measurements from publication PMC12365614, “Bipartite chromatin recognition by Hop1 from two diverged Holozoa”.

A negative result means that nothing was seen under these conditions. At least one verdict rests on a figure or table, not on a statement of the authors. Protein sequences can lack the tags named with them.

The target in the data set is T1, P. miniata Hop1 CBR R480A (GST) (Patiria miniata) (UniProt A0A913ZKG6).
T1 sequence (looked up): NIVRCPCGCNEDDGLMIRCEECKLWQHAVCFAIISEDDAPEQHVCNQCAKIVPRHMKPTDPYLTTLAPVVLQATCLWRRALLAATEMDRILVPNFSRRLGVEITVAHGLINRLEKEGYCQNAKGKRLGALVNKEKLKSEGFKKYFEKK
Put plainly: fluorescence polarization. The following applies: FP: 20 mM Tris-HCl pH 8, 100 mM Na glutamate, 5 mM MgCl2, 3% glycerol, 0.5 mM BME, 50 nM DNA, 4 C 30 min; recombinant protein; residues 352-499; protein details: N-terminal His6-GST (uncleaved); label: 5' 6-FAM on strand 1.

With “CTTATATCTGAATAGTCAGT (double strand) [20-bp FAM duplex]”, the binding result is “no binding”.
